This test addresses orthodenticle homeobox 2 (OTX2), endogenous (human (endogenous in HDMB03)) (UniProt P32243). As to the kind of experiment: co-IP; endogenous proteins, HDMB03 tumourspheres grown 3 d; lysis in 25 mM Tris pH 7.4, 150 mM NaCl, 1% Triton X-100, 5 mM EDTA; precipitated overnight with 2 μg OTX2 antibody or IgG; immunoblot for LASR complex members.

Protein sequences, listed by entry. Tags and fused reporters are not part of them.
UniProt P32243: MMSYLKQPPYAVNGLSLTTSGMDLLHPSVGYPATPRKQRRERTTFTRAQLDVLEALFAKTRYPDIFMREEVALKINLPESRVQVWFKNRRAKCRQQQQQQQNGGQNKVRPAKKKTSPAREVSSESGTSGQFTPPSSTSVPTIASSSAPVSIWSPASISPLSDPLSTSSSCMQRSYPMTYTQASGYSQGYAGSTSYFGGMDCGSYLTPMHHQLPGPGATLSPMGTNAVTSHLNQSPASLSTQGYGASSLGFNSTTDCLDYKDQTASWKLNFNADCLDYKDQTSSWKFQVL

Results are given in words; binding and its absence hold for the method and conditions named. In cells and extracts the contact can be indirect. Some results given as binding are weak or reduced against the parent protein; the word gives no strength.

B1: heterogeneous nuclear ribonucleoprotein M (HNRNPM) (protein, UniProt P52272 1-730)
chain: MAAGVEAAAEVAATEIKMEEESGAPGVPSGNGAPGPKGEGERPAQNEKRKEKNIKRGGNRFEPYANPTKRYRAFITNIPFDVKWQSLKDLVKEKVGEVTYVELLMDAEGKSRGCAVVEFKMEESMKKAAEVLNKHSLSGRPLKVKEDPDGEHARRAMQKVMATTGGMGMGPGGPGMITIPPSILNNPNIPNEIIHALQAGRLGSTVFVANLDYKVGWKKLKEVFSMAGVVVRADILEDKDGKSRGIGTVTFEQSIEAVQAISMFNGQLLFDRPMHVKMDERALPKGDFFPPERPQQLPHGLGGIGMGLGPGGQPIDANHLNKGIGMGNIGPAGMGMEGIGFGINKMGGMEGPFGGGMENMGRFGSGMNMGRINEILSNALKRGEIIAKQGGGGGGGSVPGIERMGPGIDRLGGAGMERMGAGLGHGMDRVGSEIERMGLVMDRMGSVERMGSGIERMGPLGLDHMASSIERMGQTMERIGSGVERMGAGMGFGLERMAAPIDRVGQTIERMGSGVERMGPAIERMGLSMERMVPAGMGAGLERMGPVMDRMATGLERMGANNLERMGLERMGANSLERMGLERMGANSLERMGPAMGPALGAGIERMGLAMGGGGGASFDRAIEMERGNFGGSFAGSFGGAGGHAPGVARKACQIFVRNLPFDFTWKMLKDKFNECGHVLYADIKMENGKSKGCGVVKFESPEVAERACRMMNGMKLSGREIDVRIDRNA
On to B1, for which the binding result is listed as “binds”.

Values taken from PMC11321995.
